Values of other authors in publication PMC9861162 (Pharmaceuticals, 2022).

Tested on: CYP3A4
Details: cited from earlier work

COC(=O)C1=C(C)NC(C)=C(C(=O)OC)C1c1ccccc1[N+](=O)[O-] [Nifedipine]
fm (fraction metabolized): 0.96
